# PubChem BioAssay AID1259405 – NCATS, 2018
# Screen: 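Silenced genes that increase secreted GFP made by CHO cells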 (primary screen)
# System: Chinese hamster CHO-K1 ovary cells with stable secreted eGFP expression
# Reagents: single siRNA against mouse genes, 0.8 pmol siRNA per well (2 µl of 400 nM stock)
# Timing: 3 days
# Measurement: 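Per-well intracellular GFP measured by laser scanning cytometry, plus viability from ATP luminescence, each relative to plate median of non-targeting control wells, in %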
# Reading the numbers: GFP, % of control: higher = more GFP per well, higher productivity; viability (ATP), % of control: higher = more viable cells (more ATP)
# Active means: 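a knock-down is called active if GFP reaches 120% or more of non-targeting control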
# In all, the deposit lists about 50,000 reagents; this is an unselected part. About 4,000 of them (8%) count as active. 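Mouse siRNA library applied to hamster cells; one well for each siRNA.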 The numbers tell different reagents against one gene apart. No sequences are given here.
gene symbol,reagent no.,"GFP, % of control","viability (ATP), % of control",Call
Rac2,1,101,88.5,inactive
Rac2,2,80.6,91.7,inactive
Rac2,3,61.6,64.4,inactive
Chpt1,1,110,102,inactive
Chpt1,2,116,162,inactive
Chpt1,3,94.6,109,inactive
Tmem252,1,92.5,57.7,inactive
Tmem252,2,230,143,active
Tmem252,3,156,73.7,active
Zfp292,1,76.5,91.8,inactive
Zfp292,2,78.2,63.4,inactive
Zfp292,3,94.1,112,inactive
Slc35f2,1,105,96.1,inactive
Slc35f2,2,74.2,68.6,inactive
Slc35f2,3,94.5,85.4,inactive
Psg22,1,97,68.8,inactive
Psg22,2,57.7,55.7,inactive
Psg22,3,77.8,91.3,inactive
Aars1,1,104,132,inactive
Aars1,2,37.6,50.8,inactive
Aars1,3,74.9,74.6,inactive
D930020B18Rik,1,58.8,60.9,inactive
D930020B18Rik,2,84.8,68,inactive
D930020B18Rik,3,80.7,85.4,inactive
Ripor2,1,59.7,61.8,inactive
Ripor2,2,73.1,88.2,inactive
Ripor2,3,114,99.8,inactive
Ace,1,79.6,57.5,inactive
Ace,2,55.7,42.3,inactive
Ace,3,94.2,59.3,inactive
Zgpat,1,84.9,70.1,inactive
Zgpat,2,62.2,62.5,inactive
Zgpat,3,172,148,active
Lrrc61,1,49.5,52.4,inactive
Lrrc61,2,85.1,70.3,inactive
Lrrc61,3,96.4,83.7,inactive

A run of entries from the list above, for reference:
gene symbol,reagent no.,"GFP, % of control","viability (ATP), % of control",Call
Rac2,2,80.6,91.7,inactive
Rac2,3,61.6,64.4,inactive
Chpt1,1,110,102,inactive
Chpt1,2,116,162,inactive
Chpt1,3,94.6,109,inactive
Tmem252,1,92.5,57.7,inactive
Tmem252,2,230,143,active

Further records follow.
gene symbol,reagent no.,"GFP, % of control","viability (ATP), % of control",Call
Serpinb6b,1,69.7,80.1,inactive
Serpinb6b,2,107,92,inactive
Serpinb6b,3,106,97.1,inactive
Mrps23,1,64,95.6,inactive
Mrps23,2,37.8,96.8,inactive
Mrps23,3,95.8,50.7,inactive
Or3a10,1,46.1,28.9,inactive
Or3a10,2,86.4,72.9,inactive
Or3a10,3,50.1,29.6,inactive
Hcn2,1,118,95.4,inactive
Hcn2,2,122,70.9,active
Hcn2,3,55.4,32.1,inactive
Speer4f1,1,64.9,78,inactive
Speer4f1,2,115,115,inactive
Speer4f1,3,108,58.5,inactive
P2ry14,1,151,52.6,active
P2ry14,2,91.2,84.5,inactive
P2ry14,3,76,82.3,inactive
Scn3b,1,111,106,inactive
Scn3b,2,133,76.6,active
Scn3b,3,75,105,inactive
